PubChem BioAssay AID248 (DTP/NCI, 2004)
The list is a part of this screen's results and no random one: it is rich in T/C values a quarter to a half above the control, in often repeated tests (any T/C) and in doses without a T/C. Other doses and runs of a compound stand elsewhere. T/C gives the treated animals as a percentage of the vehicle group. Some doses have a count of surviving animals in place of a T/C: the source holds a T/C of zero for them, seemingly a mark for toxic or unscored doses. Some survivor counts are full or nearly so, which does not show that the dose was tolerated: survival well below the control is almost never listed, so the zero probably covers shortened survival too. Survivors were counted at the toxicity check, usually on the fifth day, unless a day is given; later deaths do not show. Schedule codes are those of the source, taken here to give the interval after Q, in days (D) or hours (H), and the number of doses after X. Some entries hold several experiments; their values stand side by side, smallest first. For survival time, the PubChem record calls one and a half times the control and up active, and a quarter to a half above the control has no call in these data; cut-offs in other NCI protocols can differ.

System: L1210 leukemia ip in BDF1 mice, survival T/C
Assay: NCI In Vivo Anticancer Drug Screen. Data for tumor model L1210 Leukemia (intraperitoneal) in B6D2F1 (BDF1) mice
Settings: T/C endpoint: mean survival time, higher T/C = longer survival
[1] = dose: 80.0 mg/kg/injection, schedule: Q01DX001 (ip), vehicle: saline
[2] = dose: 100.0 mg/kg/injection, schedule: Q01DX001 (ip), vehicle: saline
[3] = dose: 100.0 mg/kg/injection, schedule: Q01DX009 (ip), vehicle: Klucel (hydroxypropylcellulose) (HPC)
[4] = dose: 200.0 mg/kg/injection, schedule: Q01DX009 (ip), vehicle: Klucel (hydroxypropylcellulose) (HPC)
[5] = dose: 400.0 mg/kg/injection, schedule: Q01DX009 (ip), vehicle: Klucel (hydroxypropylcellulose) (HPC)
[6] = dose: 200.0 mg/kg/injection, schedule: Q01DX001 (ip), vehicle: saline
[7] = dose: 400.0 mg/kg/injection, schedule: Q01DX001 (ip), vehicle: saline
[8] = dose: 400.0 mg/kg/injection, schedule: Q04DX003 (ip), vehicle: saline with Tween-80
[9] = dose: 100.0 mg/kg/injection, schedule: Q04DX003 (ip), vehicle: Klucel (hydroxypropylcellulose) (HPC)
[10] = dose: 200.0 mg/kg/injection, schedule: Q04DX003 (ip), vehicle: Klucel (hydroxypropylcellulose) (HPC)
[11] = dose: 400.0 mg/kg/injection, schedule: Q04DX003 (ip), vehicle: Klucel (hydroxypropylcellulose) (HPC)

CC1CCCCC1=C(C#N)C#N (configuration not stated)
survivor count [1]: 0 of 4

COc1ccc(NC(=O)Oc2ccccn2)cc1
T/C (dose: 100.0 mg/kg/injection, schedule: Q01DX009 (ip), vehicle: carboxymethylcellulose (CMC)): 95, 97, 98, 113 % of control
survivor count (dose: 200.0 mg/kg/injection, schedule: Q01DX009 (ip), vehicle: carboxymethylcellulose (CMC)): 3 of 3 and 6 of 6
survivor count (dose: 400.0 mg/kg/injection, schedule: Q01DX009 (ip), vehicle: carboxymethylcellulose (CMC)): 0 of 3 and 3 of 6

CCCCCCCCCCCCCCCCCCNC(=O)Nc1ccc(C)c(Cl)c1
survivor count (dose: 400.0 mg/kg/injection, schedule: Q04DX002 (ip), vehicle: Klucel (hydroxypropylcellulose) (HPC)): 1 of 3

COc1ccc(C2ON2C2CCCCC2)cc1OC (configuration not stated)
survivor count [2]: 6 of 6

Cl/N=C(/c1ccccc1)c1ccc(Cl)cc1
survivor count [3]: 6 of 6
survivor count [4]: 6 of 6
survivor count [5]: 5 of 6

COc1cc(CNCc2cc(OC)c(OC)c(OC)c2)cc(OC)c1OC
survivor count [6]: 2 of 4
survivor count [7]: 0 of 4

C[N+](C)(C)C1(Cc2ccc(F)cc2)c2ccccc2-c2ccccc21
survivor count (dose: 12.5 mg/kg/injection, schedule: Q01DX009 (ip), vehicle: saline with Tween-80): 5 of 6

O=C(C[n+]1cccc(C(=O)Nc2ccccc2)c1)Nc1ccc(Cl)cc1
survivor count [7]: 3 of 6

NC(Cc1ccc(O)cc1)C(=O)CCl (configuration not stated)
survivor count (dose: 100.0 mg/kg/injection, schedule: Q04DX002 (ip), vehicle: saline): 0 of 3

Cc1n(Cc2ccccc2)c2c([n+]1C)C(=O)c1ccccc1C2=O
survivor count (dose: 5.0 mg/kg/injection, schedule: Q01DX001 (ip), vehicle: saline): 0 of 4
survivor count (dose: 8.0 mg/kg/injection, schedule: Q01DX001 (ip), vehicle: saline): 0 of 4
survivor count (dose: 10.0 mg/kg/injection, schedule: Q01DX001 (ip), vehicle: saline): 0 of 4
survivor count (dose: 20.0 mg/kg/injection, schedule: Q01DX001 (ip), vehicle: saline): 0 of 4
survivor count (dose: 40.0 mg/kg/injection, schedule: Q01DX001 (ip), vehicle: saline): 0 of 4
survivor count (dose: 50.0 mg/kg/injection, schedule: Q01DX001 (ip), vehicle: saline): 0 of 4
survivor count [1]: 0 of 4
survivor count [2]: 0 of 4
survivor count [6]: 0 of 4
survivor count [7]: 0 of 4

CCCN(CCC)CCCCCO
survivor count [8]: 3 of 6

CCCCN(CCCC)CCCCO
survivor count [8]: 0 of 6

O=C(O)c1cc(Cl)nc(Cl)c1
survivor count [5]: 2 of 6

CCCCCC(CN(C)C)C(=O)/C=C\c1ccc(Cl)cc1Cl (configuration not stated)
survivor count (dose: 100.0 mg/kg/injection, schedule: Q04DX003 (ip), vehicle: alcohol): 2 of 6
survivor count (dose: 200.0 mg/kg/injection, schedule: Q04DX003 (ip), vehicle: alcohol): 0 of 6
survivor count (dose: 400.0 mg/kg/injection, schedule: Q04DX003 (ip), vehicle: alcohol): 0 of 6

CCCCCCC[As](C)(=O)O
survivor count [3]: 0 of 6
survivor count [4]: 0 of 6
survivor count [5]: 0 of 6

CS(=O)(=O)O/C=C1/CCOC1=O
survivor count (dose: 50.0 mg/kg/injection, schedule: Q01DX009 (ip), vehicle: water): 3 of 6
survivor count (dose: 100.0 mg/kg/injection, schedule: Q01DX009 (ip), vehicle: water): 2 of 6
survivor count (dose: 200.0 mg/kg/injection, schedule: Q01DX009 (ip), vehicle: water): 0 of 6

Cn1c(=O)c2ccccc2c2cc(Cl)ccc21
survivor count [4]: 3 of 6
survivor count [5]: 3 of 6

Cc1c2cnccc2c(C)c2c1c1ccccc1n2CCCN1C(=O)c2ccccc2C1=O
survivor count (dose: 100.0 mg/kg/injection, schedule: Q01DX009 (ip), vehicle: saline with Tween-80): 6 of 6
survivor count (dose: 200.0 mg/kg/injection, schedule: Q01DX009 (ip), vehicle: saline with Tween-80): 6 of 6
survivor count (dose: 400.0 mg/kg/injection, schedule: Q01DX009 (ip), vehicle: saline with Tween-80): 6 of 6

CCOC(=O)C(C(=O)O)C(=O)CCO (configuration not stated)
survivor count [7]: 3 of 3

O=C(CI)Nc1ccc(OC(=O)CI)cc1
survivor count [9]: 1 of 6
survivor count [10]: 0 of 6
survivor count [11]: 0 of 6

CCOC(=O)c1cc([N+](=O)[O-])c([N+](=O)[O-])cc1Cl
survivor count [9]: 6 of 6
survivor count [10]: 6 of 6
survivor count [11]: 2 of 6

O=S=Nc1cc(Cl)c(Cl)cc1Cl
survivor count (dose: 200.0 mg/kg/injection, schedule: Q04DX002 (ip), vehicle: saline): 3 of 3
survivor count (dose: 400.0 mg/kg/injection, schedule: Q04DX002 (ip), vehicle: saline): 3 of 3

C[N+](C)(C)CC(=O)N/N=C\c1c(O)ccc2ccccc12
survivor count [11]: 0 of 3

Cc1ccc(S(=O)(=O)NC(CCC(=O)O)C(=O)O)cc1 (configuration not stated)
survivor count [7]: 1 of 4
